# Experimental data as given in patent US10894091B2 (priority 2017, dated 2021).
# End groups of sequences in plain letters are not given here. Ends that are not written are not given here.
# Legend:
# peptide made by a vendor = conditions: whole synthesis
# [1] = peptide made by a vendor (peptide synthesis; amide resin); conditions: whole synthesis, reversed-phase analytical HPLC, C18, acetonitrile/0.1% TFA
# [2] = reversed-phase analytical HPLC, C18, acetonitrile/0.1% TFA
Substance,final HPLC purity (peptide made by a vendor; [2]) [%],also measured
GGSGGSKGSKGSKGSKGSK,97.05,–
GGSGGSGGSKGSGSKGSK,95.52,–
Ac-CGGSGGSGGSKGSGSKGSK,–,purity (crude or final not stated) (peptide made by a vendor; [2]): 95%
EGGGGSDYMGWMDF,–,final HPLC purity (peptide made by a vendor; 254 nm): 95.25%
GSSGSSKGSGKGSGKGSGKGSGK,–,final HPLC purity [1]: 98.71%
GSSGSSGSSGSKGSGSKGSGSK,95.95,–
